Patent publication US20240174750A1 (VIRTUOSO BINCO, published 2024)
Where a chain is given by its changes, count along the chain named. These are yes or no findings as the source states them, for the method shown. Some binding calls cover weakened binding; strength is not graded here.

The chains behind the UniProt entries cited, without tags or fusion partners. Residues count along the entry.
UniProt Q08722, residues 19-323: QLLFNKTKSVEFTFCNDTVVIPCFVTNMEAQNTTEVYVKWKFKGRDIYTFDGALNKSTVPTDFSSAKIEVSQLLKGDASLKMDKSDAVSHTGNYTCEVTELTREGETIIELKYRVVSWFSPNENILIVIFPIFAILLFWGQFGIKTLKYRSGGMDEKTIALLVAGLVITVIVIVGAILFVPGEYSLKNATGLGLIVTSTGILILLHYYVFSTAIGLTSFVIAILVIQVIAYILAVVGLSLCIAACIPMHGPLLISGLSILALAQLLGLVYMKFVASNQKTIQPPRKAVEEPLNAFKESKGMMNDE

How the values were obtained:
[1] = target: T1, CD47 on the surface of CD47+ cells (human, UniProt Q08722 19-323); experiment: flow cytometry on human red blood cells, FIG. 7A
T1 construct: whole, on cells; also called CD47+ cell lines; CD47 on Raji cells, HCT-15 cells, human red blood cells (RBCs), human platelets

[2] = target: T1, CD47 on the surface of CD47+ cells; experiment: binding on human platelets, FIG. 8A
[3] = target: CD47 on the surface of CD47+ cells (human) (UniProt Q08722); experiment: flow cytometry on human red blood cells, FIG. 7A
[4] = target: CD47 on the surface of CD47+ cells (human) (UniProt Q08722); experiment: binding on human platelets, FIG. 8A
[5] = target: T1, CD47 on the surface of CD47+ cells; experiment: binding on human platelets, FIG. 8B
[6] = target: T1, CD47 on the surface of CD47+ cells; experiment: flow cytometry on human red blood cells, FIG. 7B
[7] = target: CD47 on the surface of CD47+ cells (human) (UniProt Q08722); experiment: binding on human platelets, FIG. 8B
[8] = target: CD47 on the surface of CD47+ cells (human) (UniProt Q08722); experiment: flow cytometry on human red blood cells, FIG. 7B

B1: hu.1D15E11-V1 (antibody, human IgG1, kappa, V domains shown)
VH: EVQLVQSGAEVKKPGASVKVSCKASGYTFTSYVMHWVRQAPGQRLEWMGYIDPYNEGTKYNEKFKGRVTITRDTSASTAYMELSSLRSEDTAVYYCSRGGMARRSFDYWGQGTLVTVSS
VL: DIQMTQSPSSLSASVGDRVTITCLASQTIGTWLTWYQQKPGKAPKLLIYAATTLAEGVPSRFSGSGSGTDFTLTISSLQPEDFATYYCQQLYSTPWTFGGGTKVEIKR
notes: Humanised variant of 1D15E11; also called hu.1D15E11-Vi; hu.1D15E11 variants
B1 was tested, and the binding [1] was “binds” and the binding [2] was “binds”.

B2: hu.1D15E11-V2 (antibody, human IgG1, kappa, V domains shown)
VH: B1 VH with R72S
VL: B1 VL
notes: Humanised variant of 1D15E11; also called hu.1D15E11 variants
B2 was tested, and the binding [3] was “binds” and the binding [4] was “binds”.

B3: hu.1D15E11-V3 (antibody, human IgG1, kappa, V domains shown)
VH: B1 VH with M101I
VL: B1 VL
notes: as for B2
B3 was tested, and the binding [3] was “binds” and the binding [4] was “binds”.

B4: hu.1D15E11-V4 (antibody, human IgG1, kappa, V domains shown)
VH: B1 VH with M101V
VL: B1 VL
notes: as for B2
In the case of B4, the binding [3] is reported as “binds” and the binding [4] is reported as “binds”.

B5: hu.18B9.3i-V1 (antibody, human IgG1, kappa, V domains shown)
VH: EVQLVESGGGLVQPGGSLRLSCAASGFSFNSGYMSWVRQAPGKGLEWIASIYAGSSGKTYYADWAKGRFTISKTSSKTTVYLQMNSLRAEDTAVYYCARDSGGTYYTDYLYAWGQGTLVTVSS
VL: DIQMTQSPSSLSASVGDRVTITCRASEGISSYLSWYQQKPGKAPKLLIYKASTLTSGVPSRFSGSGSGTDFTLTISSLQPEDFATYYCQSTYGSSGSSGYGAAFGGGTKVEIKR
In the case of B5, the binding [5] is reported as “binds” and the binding [6] is reported as “binds”.

B6: hu.18B9.3i-V2 (antibody, human IgG1, kappa, V domains shown)
VH: B5 VH with A112L
VL: B5 VL with T91A
For B6, the binding [7] was “binds” and the binding [8] was “binds”.

B7: hu.18B9.3i-V3 (antibody, human IgG1, kappa, V domains shown)
VH: B5 VH with A112L
VL: B5 VL with G101A
For B7, the binding [7] was “binds” and the binding [8] was “binds”.
